TcHisRS: 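Histidine-tRNA ligase, Trypanosoma cruzi CL Brener (UniProt Q4DA54). Enzyme assay of histidyl-tRNA synthetase; the read-out is not stated. Compounds at 30 µM. Higher reads as stronger inhibition (inferred: compounds with an IC50 in retests scored well above the rest). Of about 69,000 compounds tested this way, about 31 (0.045%) reached 50% or more in at least one test.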
CoaBC: 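Enzyme assay of CoaBC with a phosphate dye (Biomol Green) read at 650 nm. Target: Coenzyme A biosynthesis protein CoaBC, Mycobacterium tuberculosis (UniProt P9WNZ1). Compounds at 30 µM. Direction is inferred from only a few compounds that gave an IC50; most scored high, so higher reads as stronger inhibition. Most strong results did not repeat in a second test. Of about 67,000 compounds tested this way, about 40 (0.06%) reached 50% or more in at least one test.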
LiHisRS: 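Histidine-tRNA ligase, Leishmania infantum (UniProt A4I591). Enzyme assay of histidyl-tRNA synthetase; the read-out is not stated. Compounds at 30 µM. Direction is inferred from retests: higher values go with stronger inhibition. The assay is labelled LdHisRS but filed under L. infantum. Size under these conditions: about 69,000 compounds, about 410 of them at 50% or above in at least one test.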

Chains of the proteins cited; added tags and fusions are not shown. Residues count along the entry.
UniProt Q4DA54, 1-478: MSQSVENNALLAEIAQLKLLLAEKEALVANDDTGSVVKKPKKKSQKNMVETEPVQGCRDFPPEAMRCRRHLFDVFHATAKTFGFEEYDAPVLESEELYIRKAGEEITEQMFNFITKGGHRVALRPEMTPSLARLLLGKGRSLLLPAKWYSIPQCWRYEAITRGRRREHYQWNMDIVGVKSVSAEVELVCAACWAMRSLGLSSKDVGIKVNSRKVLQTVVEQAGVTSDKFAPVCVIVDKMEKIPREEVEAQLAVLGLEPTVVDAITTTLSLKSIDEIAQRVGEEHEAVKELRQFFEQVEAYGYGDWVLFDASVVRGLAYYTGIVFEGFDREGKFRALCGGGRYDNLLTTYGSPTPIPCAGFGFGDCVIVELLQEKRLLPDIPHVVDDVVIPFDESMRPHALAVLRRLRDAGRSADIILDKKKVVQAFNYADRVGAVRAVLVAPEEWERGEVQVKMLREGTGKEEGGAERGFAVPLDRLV
UniProt P9WNZ1, whole entry: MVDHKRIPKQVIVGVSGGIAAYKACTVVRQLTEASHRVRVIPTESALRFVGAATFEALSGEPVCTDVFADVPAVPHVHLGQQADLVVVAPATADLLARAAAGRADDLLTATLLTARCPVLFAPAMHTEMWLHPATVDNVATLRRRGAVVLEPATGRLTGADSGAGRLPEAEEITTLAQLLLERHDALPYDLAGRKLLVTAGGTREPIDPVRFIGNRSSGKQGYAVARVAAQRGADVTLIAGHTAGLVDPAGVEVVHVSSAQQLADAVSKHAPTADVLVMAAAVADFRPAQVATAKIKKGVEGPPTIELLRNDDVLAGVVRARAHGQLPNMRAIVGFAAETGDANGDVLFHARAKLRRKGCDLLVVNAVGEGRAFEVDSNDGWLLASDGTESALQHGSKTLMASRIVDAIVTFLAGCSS
UniProt A4I591, 1-473: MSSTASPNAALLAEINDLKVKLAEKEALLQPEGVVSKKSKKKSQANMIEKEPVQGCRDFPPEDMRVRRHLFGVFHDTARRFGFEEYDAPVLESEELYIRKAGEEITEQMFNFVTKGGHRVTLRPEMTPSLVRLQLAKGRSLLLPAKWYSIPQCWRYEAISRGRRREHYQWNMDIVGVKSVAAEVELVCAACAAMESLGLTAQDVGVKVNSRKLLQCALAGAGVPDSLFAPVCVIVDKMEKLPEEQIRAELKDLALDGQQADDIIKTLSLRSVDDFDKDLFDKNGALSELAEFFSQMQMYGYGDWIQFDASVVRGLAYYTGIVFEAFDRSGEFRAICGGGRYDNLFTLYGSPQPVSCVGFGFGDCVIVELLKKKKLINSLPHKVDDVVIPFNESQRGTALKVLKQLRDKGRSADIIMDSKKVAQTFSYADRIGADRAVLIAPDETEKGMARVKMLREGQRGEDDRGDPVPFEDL

Values are the deposited “Percent Effect”, in %.
How 0% and 100% were set is not recorded. Most values in the screen are low, and negative values occur.
The compounds are a random part of those screened.
Two or more numbers in one place are separate tests of the same structure; such repeats can differ widely.
A dash means the value is not listed here; it may have been measured.

| Compound | TcHisRS | CoaBC | LiHisRS |
|---|---|---|---|
| `O=C(O)C1CN(c2cccc(F)c2)CCO1` (centres unmarked) | 4.563% | -1.607% | -0.6897% |
| `CC(C(=O)Nc1ccccn1)n1ccc(C(F)(F)F)n1` (centres unmarked) | 6.211% | 0.8861% | 10% |
| `O=C(NCC1CC1)C1CN(C(=O)NC2CCCC2)Cc2cncn2C1` (centres unmarked) | 4.523% | 5.322% | 19.8% |
| `CC(Cn1ccnc1)NC(=O)N(C)Cc1ccsc1` (centres unmarked) | 0% | 6.456% | 18.07% |
| `CC(CN(C)Cc1cccc(-n2cccn2)c1)C(F)(F)F` (centres unmarked) | 8.04% | -2.589% | 10.59% |
| `CC(C)CCOCCNC(=O)Nc1cc(C(F)(F)F)c[nH]c1=O` | 0.3831% | 3.035% | 12.31% |
| `c1cnn(CC2CCCCN2Cc2nc(-c3ccsc3)no2)c1` (centres unmarked) | 8.475% | 2.611% | 13.79% |
| `CCCC(=O)NCc1cccc(C(=O)OC)c1` | 2.956% | 7.051% | 6.849% |
| `Cc1c(S(=O)(=O)NCC(C)C)cnn1C` | 4.911% | 4.082% | 11.11% |
| `CC(=O)N1CCN(c2cnccn2)CC(CO)C1` (centres unmarked) | 9.848% | 1.314% | 13.04% |
| `CCSc1cc(C(=O)NCCNC(=O)Cc2ccccc2)ccn1` | 7.975% | 1.921% | 24.69% |
| `CS(=O)(=O)N1CCCC(n2nnn(-c3ccccc3)c2=O)C1` (centres unmarked) | 4.215% | -6.699% | 12.95% |
| `N#Cc1nccnc1N1CCC(OCCCc2ccccc2)C1` (centres unmarked) | 12.14% | 0.2481% | 19.15% |
| `CCn1cc2c(n1)CN(S(=O)(=O)c1ccc(C)cc1)CC2COC` (centres unmarked) | 4.813% | -9.167% | 21.37% |
| `Cc1ccc(CN2CCN(C(=O)CCc3nc(Cl)n[nH]3)CC2=O)cc1` | 3.004% | 0.8373% | 8.197% |
| `CCOC(=O)c1c(NC(=O)CN2CCN(C(C)=O)CC2)sc(C)c1C` | 11% | 4.348% | 12.33% |
| `CC(C)(C)c1noc(CCC(=O)N2CCNC(=O)C2)n1` | 8.642% | 10.92% | -3.922% |
| `CCn1ncc(CN(C)C(=O)c2ccn(C)n2)c1C` | 4.911% | 2.296% | 8.642% |
| `CCOC(=O)N1CCN(c2nc(CCN)nc3sc(C)c(C)c23)CC1` | 13.79% | -4.4% | 48.72% |
| `Cc1cccnc1CNc1cc(N2CCCC2CO)ncn1` (centres unmarked) | -1.527% | 1.928% | 5.479% |
| `CCOC(=O)NC(CNC(=O)c1ccccn1)CC(C)C` (centres unmarked) | 0.8475% | 3.084% | 7.547% |
| `COc1ccc(C(=O)N2CCCS2(=O)=O)cc1` | 5.085% | 0.7833% | 6.897% |
| `CN(C)C1CCN(C(=O)c2cc3c(s2)CCN3C(=O)C2CC2)CC1` | -75.86% | -46.23% | -126.3% |
| `CCc1nc(C#N)c(N2CCC(c3nc(-c4ccccc4)no3)CC2)o1` | -3.415% | -1.631% | -1.695% |
| `CN1CCc2c(C#N)c(NCCCO)n3cnnc3c2C1` | 0% | 5.063% | 7.895% |
| `Cc1ccc(CN2CCc3c(nc4cc(C5CC5)nn4c3O)C2)s1` | 8.527% | 5.521% | 21.28% |
| `CCN(C)C(=O)c1ccnn1-c1ccc2ccccn12` | 3.797% | - | 3.448% |
| `COc1ccc(OC)c(C2SCC(=O)Nc3n[nH]cc32)c1` (centres unmarked) | 0% | 3.418% | 22.5% |
| `CCO[C@H]1CN(C)C[C@@H]1NC(=O)c1c[nH]nc1C1CCCCC1` | 6.494% | 0% | 8.333% |
| `Cc1ccc(NC(=O)C2=CN=S=N2)cc1` | 5.376% | 2.487% | 14.29% |
| `CC(C)(C)OC(=O)N1CCCc2ccc(NCc3ncc[nH]3)cc21` | 5.021% | -2.727% | 0.9434% |
| `COCCN1CCCC1Cn1nc(C)cc1C` (centres unmarked) | 2.941% | 0.2558% | 12.84% |
| `Cc1ccccc1N1CCCN(C(=O)CC2CN(C(C)C)CCO2)CC1` (centres unmarked) | 2.488% | 6.667% | 4.196% |
| `O[C@@H]1C[C@@H](c2nc(Cc3ccccc3)no2)N(Cc2ccc(F)cc2)C1` | 9.901% | 10.61% | 22.22% |
| `CCN(C)C(=O)NCC1(CN2CCOCC2)CCCCC1` | 4.867% | -3.738% | 11.5% |
| `COc1ccccc1NC(=O)NC(C)c1nc[nH]n1` (centres unmarked) | 1.163% | 10.3% | -31.15% |
| `Cn1nc(C(=O)NC2CC(C)(C)NC(C)(C)C2)cc1NC(=O)C1CC1` | 6.878% | 1.222% | 8.824% |
| `O=C(Cn1nc(N2CCOCC2)ccc1=O)Nc1nccs1` | -1.031% | -1.887% | 1.099% |
| `CN(C)c1cc(C(=O)N2CCN(S(C)(=O)=O)CC2)ccn1` | 3.053% | 1.036% | 2.128% |
| `Cc1cc(CN2CCN(C(=O)NCCCc3cn[nH]c3C)CC2)on1` | 4.712% | 4.497% | 13.79% |
| `FC1(F)CCN(Cc2cccnc2)CC12CCN(c1ccccc1)C2` (centres unmarked) | 45.5% | 23.46% & 28.35% | 57.27% |
| `CN(Cc1nnc(C2CC2)n1C)C(=O)c1ccnc(OC2CCC2)c1` | -1.667% | -2.345% | 17.31% |
| `COc1cccc(N2CCN(Cc3cc(C)cc(F)c3)CC2=O)c1` | 9.548% | 2.768% | 22.47% |
| `Cc1cc(C(=O)N[C@H]2CC[C@@]3(CCC(=O)N3C)CC2)no1` | -17.48% | 0% | -33.01% |
| `Cc1nc(C(C)(C)C)sc1C(=O)NCCn1ccnc1` | 9.524% | -2.451% | 13.33% |
| `Cc1cc(C)n(CC2CCCN2C(=O)CCc2ccco2)n1` (centres unmarked) | 9.467% | 8.999% | 23.21% |
| `COCC(=O)NC[C@H]1C[C@@H]2CCN1C[C@@H]2CN1CCc2ccccc2C1` | 2.488% | -14.73% | 13.51% |
| `CS(=O)(=O)N1CCC(C(=O)N2CCN(Cc3cccc(Cl)c3)CC2)CC1` | -5.172% | 8.055% | 13.16% |
| `COc1nc(C)cc(C)c1CNC(=O)N(C)Cc1cnn(C)c1` | -1.149% | 8.432% | 12.31% |
| `CCN(CCc1nc2cc(C)ccc2[nH]1)C(=O)[C@@H](N)CCSC` | 0.5405% | -3.182% | 2.74% |
| `COc1cc2c(cc1OC)C(=O)C(Sc1nnnn1C)C2` (centres unmarked) | 3.96% | -0.4819% | 7.692% |

Source: ChEMBL document CHEMBL3988442, “University of Dundee, Small-Polar-MMV Screening Library” (2021).